Reference: PubChem BioAssay AID1259415 (National Center for Advancing Translational Sciences (NCATS), 2018)
Several values for one entry are separate records, joined by “and”; a condition that tells them apart may be missing. Equal entries are not always repeated. Among all 410,000 compounds or so, about 18,000 (4.4%) were called active. Inconclusive results, whose numbers are uncertain, are shown with a selection of clear calls. Rule as the data show it: active = activity change below about -60%; inconclusive = no clear call, values can overlap the other calls; inactive = above about -39%.
% is scaled to controls: 0 for no effect and ±100 for the full control effect.

Test: qHTS Assay for inhibitors of the human cytomegalovirus (HCMV)
Conditions: HFF cells, HCMV-luciferase reporter, 72 h; at 57.5 µM; stronger effect = lower value
Summary of the method: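 Compounds were evaluated in HFFs infected with an HCMV luciferase reporter virus (MOI 1 PFU/cell). Luciferase in lysates collected 72 h post infection served as the replication measure.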
In the case of COc1ccc(CCN2C(=O)c3[nH]nc(-c4ccccc4O)c3C2c2ccc(C)cc2)cc1OC (stereo not drawn), the activity change, negative = inhibition is reported as inconclusive: -52.3%. With COc1cc(C(=O)Oc2ccccc2/C=N/NC(=O)c2ccc(Cl)cc2Cl)cc(OC)c1OC the activity change, negative = inhibition was active: -99.7%. In the case of Cc1ccc(-c2[nH]n3c(=O)c4c(nc3c2C)CCCC4)cc1, the activity change, negative = inhibition is reported as inactive: 13.4%. With CCCCNC(=O)C(NC(=O)c1cccnc1OC)C(=O)c1ccccc1 (stereo not drawn) the activity change, negative = inhibition was inconclusive: -42.4%. With COC(=O)c1cnn(-c2cc(Oc3ccccc3)ncn2)c1N the activity change, negative = inhibition was inactive: -1.07%. With CCOC(=O)c1c(C)[nH]c(C(=O)NNC(=O)c2ccc(C(C)(C)C)cc2)c1C the activity change, negative = inhibition was inconclusive: -58.8%. With COc1ccc(NC(=O)CS(=O)c2cccc(Cl)c2)cc1 (stereo not drawn) the activity change, negative = inhibition was inactive: -39%. With CC(C)(C)NC(=O)/C(=C\c1ccccc1F)NC(=O)c1ccc([N+](=O)[O-])cc1 the activity change, negative = inhibition was inconclusive: -45.6%. In the case of COc1cc(C(=O)OCC(=O)NC23CC4CC(CC(C4)C2)C3)cc(OC)c1OC, the activity change, negative = inhibition is reported as inconclusive: -46.1%. For Cn1c(=O)c2c(nc(CN3CCN(C(=O)c4ccco4)CC3)n2CC(N)=O)n(C)c1=O, the activity change, negative = inhibition was inactive: -28.9%. With O=C1c2cccc3cccc(c23)C(=O)N1CCN1CCN(CC(O)COc2ccc3ccccc3c2)CC1 (stereo not drawn) the activity change, negative = inhibition was active: -62.7%. With Cc1cccc(-c2nc3c4ccccc4n(CC(=O)Nc4cccc(F)c4)c(=O)n3n2)c1 the activity change, negative = inhibition was inactive: 71.5%. In the case of COc1ccc(OC)c(NC(=O)c2ccc3c(=O)n(CCc4ccccc4)c(=S)[nH]c3c2)c1, the activity change, negative = inhibition is reported as inconclusive: -44.5%. With CCOC(=O)N/N=C\c1ccc([N+](=O)[O-])o1 the activity change, negative = inhibition was inconclusive: -55%. For CCC(=O)C1=C(c2cccc([N+](=O)[O-])c2)N(C(=O)CC)n2c(nnc2C2CCCCC2)S1, the activity change, negative = inhibition was active: -99.3%. For COC(=O)c1ccc2nc(-c3cccc(Br)c3)c(Cc3ccsc3)n2c1, the activity change, negative = inhibition was inconclusive: -46%. With Cc1ccccc1-c1nc(CS(=O)(=O)CC(=O)Nc2c(C)cccc2C)c(C)o1 the activity change, negative = inhibition was active: -78.2%. With Cc1ccc(CN2C(=O)C(C)Oc3ccccc32)cc1 (stereo not drawn) the activity change, negative = inhibition was inconclusive: -45%. In the case of CCOc1ccccc1N(C)C(=O)c1cc(S(=O)(=O)NCc2ccc(C)cc2)ccc1F, the activity change, negative = inhibition is reported as inactive: -34.1%. With Cc1cc2nc(CSc3ccc(Cl)cc3)cc(=O)n2[nH]1 the activity change, negative = inhibition was inconclusive: -40.5%. With CCOc1ncccc1C(=O)Nc1ccc(C(=O)Nc2ccc(OC)cc2)cc1 the activity change, negative = inhibition was inconclusive: -40.6%. In the case of O=C(NCc1ccco1)c1ccc(N2CCOCC2)c([N+](=O)[O-])c1, the activity change, negative = inhibition is reported as inconclusive: -43.6%. With CC(C)c1ccc2[nH]c(O)c(N=NC(=S)NCCc3ccccc3)c2c1 the activity change, negative = inhibition was inconclusive: -46.8%. With c1csc(C2Nc3ccccc3-c3nc4ccccc4n32)c1 (stereo not drawn) the activity change, negative = inhibition was inactive: -0.592%. For CC1(C)CC(=O)c2c(oc3ccc(NS(=O)(=O)c4cccc5cccnc45)cc23)C1, the activity change, negative = inhibition was inconclusive: -58.7%. In the case of O=C(c1c[nH]c(C(=O)C(Cl)(Cl)Cl)c1)c1ccc(F)cc1F, the activity change, negative = inhibition is reported as inconclusive: -48.5%. With COc1cccc(CNC(=O)CCCn2c(=O)c3cccn3c3ccc(F)cc32)c1OC the activity change, negative = inhibition was inconclusive: -53.3%. For Clc1ccc(OCCn2cnc(Cl)c2Cl)cc1, the activity change, negative = inhibition was inconclusive: -44.8%. In the case of O=C(c1ccccc1Br)N(Cc1ccccc1)c1ccccc1, the activity change, negative = inhibition is reported as active: -61.5%. For Nc1cc(N)nc(SCC(=O)NCc2ccco2)n1, the activity change, negative = inhibition was inconclusive: -49.7%. In the case of COc1ccc(CCC(=O)NCCCNC(=O)CCc2ccc(OC)cc2)cc1, the activity change, negative = inhibition is reported as inactive: 19.2%. In the case of NC(Cc1ccc(C(F)(F)F)cc1)c1csc(NC(=O)NCCc2ccccc2)n1 (stereo not drawn), the activity change, negative = inhibition is reported as active: -101%. For Cc1cc(/C=N/NC(N)=S)c(C)n1-c1cccc(Cl)c1, the activity change, negative = inhibition was active: -64.7%. With O=C(C[C@@H]1CC[C@H](NC(=O)Nc2ccc(F)cc2)[C@@H](CO)O1)NCc1cccc(F)c1 the activity change, negative = inhibition was inconclusive: -47%. With Cc1cnc(C(=O)Nc2ccc(N3CCN(C(=O)OC(C)(C)C)CC3)cc2)cn1 the activity change, negative = inhibition was inconclusive: -48.4%. With CCOC(=O)C1=C(NC(=S)NC(=O)c2ccccc2)c2ccccc2CC1(C)CC (stereo not drawn) the activity change, negative = inhibition was inconclusive: -54.3%. For CCN(CC)C(=O)c1nc[nH]c1C(=O)O[C@@H](C)c1ccccc1, the activity change, negative = inhibition was inactive: 15.2%. For Cc1ccc2nc3n(c(=O)c2c1)-c1cc2ccccc2cc1C(=O)NC3Cc1ccc(O)cc1 (stereo not drawn), the activity change, negative = inhibition was active: -92.3%. In the case of Cc1nn(Cc2ccccc2Cl)c2sc(C(=O)Nc3nccs3)cc12, the activity change, negative = inhibition is reported as inconclusive: -50.6%. With O=C(Nc1ccc(F)cc1)C1CCC(CNc2c(N3CCCCC3)c(=O)c2=O)CC1 (stereo not drawn) the activity change, negative = inhibition was inconclusive: -42.7%. In the case of CCOC(=O)[C@@H]1CSCCS(=O)(=O)N1Cc1ccccc1Br, the activity change, negative = inhibition is reported as inactive: -11.4%. In the case of CCOc1ccc(/C=N/NC(=S)NC2CC3CCC2C3)cc1 (stereo not drawn), the activity change, negative = inhibition is reported as inconclusive: -54.1%. In the case of CN(C)C(=O)/C(=C\c1ccc(-c2cccc([N+](=O)[O-])c2)o1)NC(=O)c1ccccc1, the activity change, negative = inhibition is reported as inconclusive: -46.2%. In the case of CN1C(=S)N(c2cccnc2)C(=O)/C1=C\c1ccc(C(C)(C)C)cc1, the activity change, negative = inhibition is reported as inconclusive: -56.5%. For O=C(NCCc1ccc(C(F)(F)F)cc1)C1COc2ccccc2O1 (stereo not drawn), the activity change, negative = inhibition was inconclusive: -45.7%. For Cc1ccc(OCC(=O)NC(=S)Nc2ccccn2)c(Br)c1, the activity change, negative = inhibition was active: -62.5%. For O=C(c1cccc(S(=O)(=O)N2CCc3ccccc32)c1)N1CCc2ccccc2C1, the activity change, negative = inhibition was inactive: 20.3%. With O=C(c1cccc(C(=O)N(c2ccccn2)C2CCCCC2)c1)N(c1ccccn1)C1CCCCC1 the activity change, negative = inhibition was inconclusive: -45.2%. With COc1ccc(-c2csc3nc(-c4ccc(F)cc4)oc(=O)c23)cc1OC the activity change, negative = inhibition was inactive: 6.73%. For Cc1ccc(NC(=S)N(CCCN2CCOCC2)Cc2ccco2)cc1, the activity change, negative = inhibition was inactive: 5.44%. For CCOP(=O)(c1ccccc1)c1nc(-c2ccccc2Cl)oc1N1CCCCC1 (stereo not drawn), the activity change, negative = inhibition was inactive: 14.7%. For Cc1cccc(C)c1NC(=O)CCS(=O)(=O)c1ccc2c(c1)n(C)c(=O)c(=O)n2C, the activity change, negative = inhibition was inconclusive: -41.5%. For CCOc1cccc(NC(=O)C2CC(=O)N(C)C(=Nc3cccc(F)c3)S2)c1 (stereo not drawn), the activity change, negative = inhibition was inactive: 42.9%. In the case of CC(=O)C1=C(C)OC(N)=C(C#N)C1c1cccc([N+](=O)[O-])c1 (stereo not drawn), the activity change, negative = inhibition is reported as inconclusive: -45.7%. In the case of COc1ccc(CCn2c(O)c(/C=N/N3CCCCC3)c(=O)[nH]c2=O)cc1OC, the activity change, negative = inhibition is reported as inactive: -9.11%. For Cc1ccc(CS(=O)Cc2ccc(C(=O)N3CCN(C4CCCCC4)CC3)o2)cc1 (stereo not drawn), the activity change, negative = inhibition was inconclusive: -42.2%. In the case of O=C(NC1CCCC1)C(c1ccc(O)cc1)N(CC1CCCO1)C(=O)C1COc2ccccc2O1 (stereo not drawn), the activity change, negative = inhibition is reported as inactive: -21.7%. With CCOc1ccc(NC(=S)N2CCCN(Cc3cc(C)ccc3C)C2)cc1 the activity change, negative = inhibition was inactive: -32%. For COc1ccc(/C=N/NC(=O)CCOc2ccccc2C)cc1OC, the activity change, negative = inhibition was active: -79%. For Cn1nc(CC(=O)NC2CCCCCC2)c2ccccc2c1=O, the activity change, negative = inhibition was active: -72.2%. With O=C(COC(=O)c1ccc2c(c1)OCCO2)Nc1cccc(S(=O)(=O)N2CCOCC2)c1 the activity change, negative = inhibition was inconclusive: -44.9%. In the case of CNc1nc(SCC(=O)Nc2ccc(Cl)c(Cl)c2)nc(N2CCOCC2)n1, the activity change, negative = inhibition is reported as inconclusive: -57.8%. With OC(c1ccccc1)c1nc(-c2cncnc2)cs1 (stereo not drawn) the activity change, negative = inhibition was inconclusive: -49%. In the case of COc1ccc(N(CC(=O)Nc2c(C)cccc2C)C(c2ccccc2F)c2nnnn2-c2c(C)cccc2C)cc1 (stereo not drawn), the activity change, negative = inhibition is reported as inconclusive: -52.8%. With Cc1cccc(-n2ncc3c(NCc4cccnc4)ncnc32)c1 the activity change, negative = inhibition was inactive: 132%. In the case of CCOC(=O)C(NC(=O)CC)C(O)c1cccc([N+](=O)[O-])c1 (stereo not drawn), the activity change, negative = inhibition is reported as inconclusive: -42.7%. With CCN(CC)C(=O)Cn1c(=O)n(CCCCCC(=O)Nc2ccccc2)c(=O)c2sccc21 the activity change, negative = inhibition was inconclusive: -44.3%. For CCOc1ccc(NC(=O)CCc2nnc3ccc(N4CCC(C)CC4)nn23)cc1, the activity change, negative = inhibition was inconclusive: -45.5%. With O=C(Nc1nc2c(F)cc(F)cc2s1)c1ccc([N+](=O)[O-])o1 the activity change, negative = inhibition was inactive: 8.96%. For C#CCN(C[C@H]1[C@H](OC(=O)NC2CC2)[C@H](OC(=O)NC2CC2)C[C@@H](C(=O)OC)[C@H]1C(=O)OC)S(=O)(=O)c1ccc(C)cc1, the activity change, negative = inhibition was inactive: -34.4%. In the case of COCCOC(=O)C1=C(C)Nc2nc(C)nn2C1c1ccc(F)cc1 (stereo not drawn), the activity change, negative = inhibition is reported as inactive: 38.6% and inactive: 6.08%. With CCOc1ccc(S(=O)(=O)N(CC(=O)Nc2ccc(OC)c(Cl)c2)c2ccccc2)cc1 the activity change, negative = inhibition was active: -60.2%. With Cc1ccc(-c2nnc(Nc3ccc(O)cc3)c3ccccc23)cc1S(=O)(=O)NC(C)(C)CO the activity change, negative = inhibition was inconclusive: -52%. With COCCN(CC(=O)Nc1cccc(C)c1C)C(=O)c1cc2c(s1)CCC2 the activity change, negative = inhibition was inconclusive: -52.7%. In the case of CC(C)c1cccc(C(C)C)c1NC(=O)COc1nncc2ccccc12, the activity change, negative = inhibition is reported as inconclusive: -57.9%. In the case of CC(C)(C)n1nnnc1C(c1cccs1)N(Cc1ccc(Cl)cc1)CC1CCCO1 (stereo not drawn), the activity change, negative = inhibition is reported as active: -69.6%. In the case of CCN(CC)S(=O)(=O)c1ccc(C)c(NC(=O)COC(=O)CCC(=O)c2cccs2)c1, the activity change, negative = inhibition is reported as inactive: 0%. For CC(C)NS(=O)(=O)c1ccc(NC(=S)NC(=O)c2cccc([N+](=O)[O-])c2)cc1, the activity change, negative = inhibition was inconclusive: -49.1%. In the case of Cc1ccc(N2CCN(CCCCN3C(=O)C4CCCN4C3=O)CC2)cc1 (stereo not drawn), the activity change, negative = inhibition is reported as inconclusive: -40.7%. With Cc1cc(C)c(Cn2cnc3nc4c(cc3c2=O)CCCC4)c(C)c1 the activity change, negative = inhibition was inactive: -18%. For CCN(CC)CCOc1ccc(/C(=C(/Cl)c2ccccc2)c2ccccc2)cc1, the activity change, negative = inhibition was active: -70.5% and inconclusive: -41.5%. In the case of CCN1C(=O)/C(=C/C=C2/Sc3ccc4ccccc4c3N2CCO)SC1=S, the activity change, negative = inhibition is reported as inconclusive: -42.3%. With Cc1cc(/C=C2/NC(=O)NC2=O)c(C)n1-c1sc2c(c1C#N)CCCC2 the activity change, negative = inhibition was active: -72.8%.
